The source of these data is patent US10526389B2, “Peptides and combinations of peptides for use in immunotherapy against lung cancer, including NSCLC and other cancers” (Immatics Biotechnologies GmbH, priority 2015, dated 2020).

The test system of one data set is HLA-A*02-positive lung cancer (NSCLC) samples. The experiment in a line: Relative LC-MS quantitation of HLA-A*02 peptide presentation on tumors vs normal tissues. Further details: species or system human; key to Peptide Presentation (presentation score): very highly over-presented on tumors compared to a panel of normal tissues (+++); highly over-presented on tumors compared to a panel of normal (healthy) tissues (++); over-presented on tumors compared to a panel of normal tissues (+). The following applies: FIG. 1E legend; A*02.
“4 (FVFSFPVSV; listed as Homo sapiens) [compound 4]”: the “cell lines, normal tissues and cancer tissues where the peptide has been detected” value is reported as 5 pancreatic cell lines, 3 skins, 15 normal tissues (2 esophagi, 7 lungs, 3 spleens, 3 stomachs), 126 cancer tissues.

Still in this data set, the particulars now being: HLA-A*02 peptides, amendment of Table 9; >5% of measured tumor samples or ratio of geometric means tumor vs normal >3.
Regarding “10 (KMAGIGIREA; listed as Homo sapiens) [compound 10]”, the “Additional Entities (additional tumor types showing over-presentation)” value was “Urinary bladder cancer”.

Turning to “94 (ILVDWLVQV; listed as Homo sapiens) [compound 94]”, the “Additional Entities (additional tumor types showing over-presentation)” value is “SCLC, BRCA, Esophageal Cancer, Urinary bladder cancer, Uterine Cancer, Gallbladder Cancer, Bile Duct Cancer, AML, NHL”.

Take “21 (VLSSGLTAA; listed as Homo sapiens) [compound 21]”: the “Additional Entities (additional tumor types showing over-presentation)” value is recorded as “CRC, BRCA, Urinary bladder cancer, Uterine Cancer”.

On to “107 (ALSERAVAV; listed as Homo sapiens) [compound 107]”, for which the “Additional Entities (additional tumor types showing over-presentation)” value is recorded as “Esophageal Cancer, Uterine Cancer”.

As for “96 (AMGIAPPKV; listed as Homo sapiens) [compound 96]”, the “Additional Entities (additional tumor types showing over-presentation)” value was “SCLC, BRCA, Melanoma, NHL”.

In the case of “4 (FVFSFPVSV; listed as Homo sapiens) [compound 4]”, the “Additional Entities (additional tumor types showing over-presentation)” value was “SCLC, Esophageal Cancer, Urinary bladder cancer, Gallbladder Cancer, Bile Duct Cancer, NHL”.

With “1 (KLLPYIVGV; listed as Homo sapiens) [compound 1]”, the “Additional Entities (additional tumor types showing over-presentation)” value was “SCLC, CRC, Melanoma, Esophageal Cancer, Gallbladder Cancer, Bile Duct Cancer”.

For the substance “109 (NLIEVNEEV; listed as Homo sapiens) [compound 109]”, the “Additional Entities (additional tumor types showing over-presentation)” value was “CLL, AML”.

The same data set, now with this note: HLA-A*02 peptides; over-presented on >5% of measured tumour samples, or presented on >5% with ratio of geometric means tumour vs normal >3.
On to “122 (KLSWDLIYL; listed as Homo sapiens) [compound 122]”, for which the “Other relevant organs/diseases (additional tumour types on which the peptide was found)” value (shortened to “Other relevant organs/diseases”) is “Kidney, Colon, Rectum”.

As to “150 (GVLENIFGV; listed as Homo sapiens) [compound 150]”, the “Other relevant organs/diseases” value is reported as “Kidney, Brain, Liver, Ovary, Esophagus”.

Turning to “157 (KLFGEKTYL; listed as Homo sapiens) [compound 157]”, the “Other relevant organs/diseases” value is on record as “Esophagus”.

For the substance “10 (KMAGIGIREA; listed as Homo sapiens) [compound 10]”, the “Other relevant organs/diseases” value is “Prostate, Ovary”.

As to “94 (ILVDWLVQV; listed as Homo sapiens) [compound 94]”, the “Other relevant organs/diseases” value is listed as “Kidney, Brain, Stomach, Colon, Rectum, Liver, Melanoma, Ovary”.

Regarding “156 (TVAEVIQSV; listed as Homo sapiens) [compound 156]”, the “Other relevant organs/diseases” value is “Pancreas, Breast, Esophagus”.

For the substance “114 (AMSSKFFLV; listed as Homo sapiens) [compound 114]”, the “Other relevant organs/diseases” value was “Brain, Stomach, Colon, Rectum, Liver, Pancreas, Prostate, Ovary, Esophagus”.

With “21 (VLSSGLTAA; listed as Homo sapiens) [compound 21]”, the “Other relevant organs/diseases” value is recorded as “Liver, Esophagus”.

On to “123 (GLTDNIHLV; listed as Homo sapiens) [compound 123]”, for which the “Other relevant organs/diseases” value was “Kidney, Colon, Rectum, Pancreas, Ovary, Esophagus”.

As to “96 (AMGIAPPKV; listed as Homo sapiens) [compound 96]”, the “Other relevant organs/diseases” value is “Colon, Rectum, Liver, Pancreas, Leukocytes”.

In the case of “4 (FVFSFPVSV; listed as Homo sapiens) [compound 4]”, the “Other relevant organs/diseases” value is listed as “Stomach, Pancreas, Breast, Melanoma, Ovary”.

Take “134 (TLWYRAPEV; listed as Homo sapiens) [compound 134]”: the “Other relevant organs/diseases” value is given as “Stomach, Melanoma, Ovary”.

“1 (KLLPYIVGV; listed as Homo sapiens) [compound 1]”: the “Other relevant organs/diseases” value is “Pancreas, Breast”.

As for “153 (ALYDSVILL; listed as Homo sapiens) [compound 153]”, the “Other relevant organs/diseases” value is listed as “Stomach, Prostate, Esophagus”.

On to “144 (KIFDEILVNA; listed as Homo sapiens) [compound 144]”, for which the “Other relevant organs/diseases” value is given as “Stomach, Colon, Rectum, Melanoma, Ovary, Esophagus”.

Regarding “155 (ALDENLHQL; listed as Homo sapiens) [compound 155]”, the “Other relevant organs/diseases” value was “Esophagus”.

Take “145 (AMTQLLAGV; listed as Homo sapiens) [compound 145]”: the “Other relevant organs/diseases” value was “Brain, Colon, Rectum, Breast, Esophagus”.

“146 (FQYDHEAFL; listed as Homo sapiens) [compound 146]”: the “Other relevant organs/diseases” value is on record as “Kidney, Stomach, Colon, Rectum, Pancreas, Melanoma, Esophagus”.

As for “141 (NLIEKSIYL; listed as Homo sapiens) [compound 141]”, the “Other relevant organs/diseases” value is “Esophagus”.

On to “111 (SLYKGLLSV; listed as Homo sapiens) [compound 111]”, for which the “Other relevant organs/diseases” value is given as “Kidney, Brain, Colon, Rectum, Liver, Ovary”.

For the substance “112 (VLAPLFVYL; listed as Homo sapiens) [compound 112]”, the “Other relevant organs/diseases” value was “Kidney, Pancreas, Breast, Melanoma”.

Take “152 (ILQDRLNQV; listed as Homo sapiens) [compound 152]”: the “Other relevant organs/diseases” value is given as “Colon, Rectum, Liver, Ovary”.

Staying with this data set, now noted: HLA-A*02 peptides; tumors compared to a panel of normal tissues.
Regarding “SF3B3-001 (ELDRTPPEV; listed as Homo sapiens)”, the “Peptide Presentation (presentation score)” value (“Peptide Presentation” below) is given as “+”.

With “DIO2-001 (ALYDSVILL; listed as Homo sapiens)”, the “Peptide Presentation” value is “++”.

“KRT-006 (TLLQEQGTKTV; listed as Homo sapiens)”: the “Peptide Presentation” value is on record as “+”.

On to “FZD-001 (VLAPLFVYL; listed as Homo sapiens)”, for which the “Peptide Presentation” value is given as “++”.

Take “ALVQDLAKA (listed as Homo sapiens) [SEQ ID No. 131]”: the “Peptide Presentation” value is on record as “+”.

“RLDDLKMTV (listed as Homo sapiens) [SEQ ID No. 125]”: the “Peptide Presentation” value is “++”.

As for “ALVDHTPYL (listed as Homo sapiens) [SEQ ID No. 136]”, the “Peptide Presentation” value is “+”.

In the case of “PCNXL3-001 (GVLENIFGV; listed as Homo sapiens)”, the “Peptide Presentation” value is “+”.

Regarding “PLT-001 (ALFGALFLA; listed as Homo sapiens)”, the “Peptide Presentation” value is “+”.

For “SMYD3-001 (SLIEDLILL; listed as Homo sapiens)”, the “Peptide Presentation” value is “++”.

Consider “PRKDC-001 (LMTKEISSV; listed as Homo sapiens)”, for which the “Peptide Presentation” value is reported as “+”.

On to “PRPF3-001 (AMGIAPPKV; listed as Homo sapiens)”, for which the “Peptide Presentation” value is “+”.

On to “TNC-001 (AMTQLLAGV; listed as Homo sapiens)”, for which the “Peptide Presentation” value is recorded as “+”.

With “ILQDRLNQV (listed as Homo sapiens) [SEQ ID No. 152]”, the “Peptide Presentation” value is listed as “+”.

On to “LIFDLGGGTFDV (listed as Homo sapiens) [SEQ ID No. 16]”, for which the “Peptide Presentation” value is reported as “+”.

Consider “COL12A1-002 (FLVDGSWSV; listed as Homo sapiens)”, for which the “Peptide Presentation” value is listed as “++”.

“KILEDVVGV (listed as Homo sapiens) [SEQ ID No. 130]”: the “Peptide Presentation” value is given as “+”.

Regarding “FLIPYAIML (listed as Homo sapiens) [SEQ ID No. 2]”, the “Peptide Presentation” value is recorded as “+++”.

Take “IVDDITYNV (listed as Homo sapiens) [SEQ ID No. 119]”: the “Peptide Presentation” value is “++”.

For “KIFDEILVNA (listed as Homo sapiens) [SEQ ID No. 144]”, the “Peptide Presentation” value is “+”.

As to “DUSP4-001 (FVFSFPVSV; listed as Homo sapiens)”, the “Peptide Presentation” value is reported as “+”.

With “AIVDKVPSV (listed as Homo sapiens) [SEQ ID No. 143]”, the “Peptide Presentation” value is “+”.

On to “CCNB2-001 (ILVDWLVQV; listed as Homo sapiens)”, for which the “Peptide Presentation” value is “+++”.

For “CSNK2A2-001 (VLSSGLTAA; listed as Homo sapiens)”, the “Peptide Presentation” value was “+”.

As for “UBE2S-001 (ALNEEAGRLLL; listed as Homo sapiens)”, the “Peptide Presentation” value was “++”.

As for “DKC-001 (ALFQRPPLI; listed as Homo sapiens)”, the “Peptide Presentation” value is on record as “+”.

As for “IVAESLQQV (listed as Homo sapiens) [SEQ ID No. 105]”, the “Peptide Presentation” value was “+”.

“RCN1-001 (FQYDHEAFL; listed as Homo sapiens)”: the “Peptide Presentation” value is reported as “++”.

Turning to “LIQDRVAEV (listed as Homo sapiens) [SEQ ID No. 14]”, the “Peptide Presentation” value is on record as “+”.

On to “MAGEF1-001 (ILFPDIIARA; listed as Homo sapiens)”, for which the “Peptide Presentation” value is given as “+”.

As for “RLASYLDKV (listed as Homo sapiens) [SEQ ID No. 133]”, the “Peptide Presentation” value is “+”.

Take “GBP5-001 (SLLSELQHA; listed as Homo sapiens)”: the “Peptide Presentation” value is given as “++”.

As for “KIF26B-001 (TVAEVIQSV; listed as Homo sapiens)”, the “Peptide Presentation” value is “+”.

As to “CERC-001 (KLSWDLIYL; listed as Homo sapiens)”, the “Peptide Presentation” value is “+”.

Turning to “TLFPVRLLV (listed as Homo sapiens) [SEQ ID No. 97]”, the “Peptide Presentation” value was “+”.

Take “KIQEMQHFL (listed as Homo sapiens) [SEQ ID No. 116]”: the “Peptide Presentation” value was “+++”.
